Results from publication PMC7819943, “Rice protein-binding microarrays: a tool to detect cis-acting elements near promoter regions in rice”.
Some of the results follow.

molecular target: T1, OsSMF1 (Oryza sativa, UniProt Q6ZLB0 1-436); experiment: protein-binding microarray (RPBM); PBS, 2% BSA, 51.3 ng/ul salmon testes DNA, 50 uM zinc acetate, 200 nM TF, 25 C, 1 h; high values mean tight binding; settings: protein: recombinant; tags: N-terminal polyhistidine and DsRed monomer fusion (pET32a); chain copies: 2; label: CyDye5-dUTP incorporated in the synthesized complementary strand; 3' TTTTT single-stranded linker to array surface; dsDNA, one strand shown
T1 sequence: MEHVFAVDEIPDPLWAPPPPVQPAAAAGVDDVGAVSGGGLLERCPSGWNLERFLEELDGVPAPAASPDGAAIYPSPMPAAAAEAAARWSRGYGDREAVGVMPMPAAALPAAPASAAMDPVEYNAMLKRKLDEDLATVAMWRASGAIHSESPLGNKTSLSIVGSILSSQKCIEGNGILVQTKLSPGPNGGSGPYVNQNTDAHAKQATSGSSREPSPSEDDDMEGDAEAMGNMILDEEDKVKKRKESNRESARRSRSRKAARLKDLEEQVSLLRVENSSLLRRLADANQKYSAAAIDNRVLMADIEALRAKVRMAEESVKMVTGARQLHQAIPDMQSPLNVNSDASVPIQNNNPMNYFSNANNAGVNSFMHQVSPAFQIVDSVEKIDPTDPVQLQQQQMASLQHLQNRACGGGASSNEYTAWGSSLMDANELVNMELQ
In short: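 Using Ni–NTA, transcription factors fused N-terminally to polyhistidine and DsRed were purified after expression in E. coli BL21-CodonPlus. These were incubated at 200 nM with a blocked, double-stranded custom Agilent array for 1 h at 25 °C in a buffer containing 50 µM zinc acetate, and the array was washed. The binding signal is per-feature fluorescence intensity (arbitrary units) on an Axon 4000B scanner.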

| Sequence | binding signal |
| --- | --- |
| TTCGTGGTTTCGTTCAGCTTGATTTCGCTTGACACATCGACGGAGTCACCTAGTGCAG | 4040 fluorescence intensity (a.u.) |
| TTTGTACCAGCTGCCTTCTTTCCACCAGTCGACGACGACACGGAGTCACCTAGTGCAG | 3560 fluorescence intensity (a.u.) |
| TAGGCTAGCTGTAGCCACAAGCTTCTTACACCTCACGTTTCGGAGTCACCTAGTGCAG | 4240 fluorescence intensity (a.u.) |
| ATAACAACCCGGCCCCGCCGCCACTCCATCCCCGACTCACCGGAGTCACCTAGTGCAG | 3700 fluorescence intensity (a.u.) |
| GAAGATGGCTACCGTATTGTCATCAATGATGGCCCCAGTGCGGAGTCACCTAGTGCAG | 3640 fluorescence intensity (a.u.) |
| GAGACAAAACATCGTTGTTATACATAACAACGGCTTAACGCGGAGTCACCTAGTGCAG | 37000 fluorescence intensity (a.u.) |
| ATAAATCACGTGTCTCTTCTCTTGGTTTGCACATTCTTGCCGGAGTCACCTAGTGCAG | 3670 fluorescence intensity (a.u.) |
| AGAAAATTCTGAAAATGAGGAACCTTTCATTATTTATGTCCGGAGTCACCTAGTGCAG | 6420 fluorescence intensity (a.u.) |
| GTATATCCATAAGCGAAATGACGGGGCTATTAGAGTGGCACGGAGTCACCTAGTGCAG | 3440 fluorescence intensity (a.u.) |
| AGAAGAGTGGCGTTGGGGACGTGGACGGCGAGAGCAGGTGCGGAGTCACCTAGTGCAG | 5850 fluorescence intensity (a.u.) |
| TTGCTGCCACAGCTAAAACAGTCCAGCTACCATACATGAGCGGAGTCACCTAGTGCAG | 25200 fluorescence intensity (a.u.) |
| CGGTGCCGAGCTTGGCCGCCAGCTCGTCGGCGCCGAGGTCCGGAGTCACCTAGTGCAG | 3410 fluorescence intensity (a.u.) |
| CTCTGGGGCTCTGGGCAGGGCAACCAGCGGGTGGGGAGGACGGAGTCACCTAGTGCAG | 3540 fluorescence intensity (a.u.) |
| GCGCCGAGGCCACGATGACGCCGCCGCCCGCTTGTCCGGGCGGAGTCACCTAGTGCAG | 3180 fluorescence intensity (a.u.) |
| AGAGTGTTTAGATCCAAGAGTGTAAAGTTTTGACGTGTCACGGAGTCACCTAGTGCAG | 7670 fluorescence intensity (a.u.) |
| CCAAGCCGCGCCACCACCGGCAACGCCACCTCTTGAGTCGCGGAGTCACCTAGTGCAG | 3310 fluorescence intensity (a.u.) |
| TAACTATTTAGACGATGAAGGGCCTGTTCATTTTGATGTCCGGAGTCACCTAGTGCAG | 4400 fluorescence intensity (a.u.) |
| TCTCAAACTTTATTAACACAATATCTCCAGCCTTTTCTAGCGGAGTCACCTAGTGCAG | 37800 fluorescence intensity (a.u.) |
| TGCACCTGTGGCCGCATCACAATCATCATTGACACAACCGCGGAGTCACCTAGTGCAG | 5220 fluorescence intensity (a.u.) |
| CCGCGCTACCGCTGCCGGATGACGTCATGCAGGAGCAGGACGGAGTCACCTAGTGCAG | 10900 fluorescence intensity (a.u.) |
| GCCCGCCGCCTCGGCGTGCGTGGCCCAGCCCAACTAAAACCGGAGTCACCTAGTGCAG | 3150 fluorescence intensity (a.u.) |
| TCCCCTAGGAAGAGGCACACGCACCGGTTGGTCATCATCCCGGAGTCACCTAGTGCAG | 3520 fluorescence intensity (a.u.) |
| TGACATGCAAGTTGATGTGATGCCAGCTTGCTACTATGCGCGGAGTCACCTAGTGCAG | 4460 fluorescence intensity (a.u.) |
| GGCACGTATCGGTCTCGTCACGCTCGAGCCCGAATCCGCACGGAGTCACCTAGTGCAG | 3160 fluorescence intensity (a.u.) |
| GACTCCTTAGGCGGTTTCGTCCTACGTGGCACTTATGTGGCGGAGTCACCTAGTGCAG | 17800 fluorescence intensity (a.u.) |
| TGCACAGCACGGCAATACACGTCTTTATCCTCTCAACGTACGGAGTCACCTAGTGCAG | 4710 fluorescence intensity (a.u.) |
| AGATCTAAACTGCTTACTTGCCCACAAATGCCGTTGTTGTCGGAGTCACCTAGTGCAG | 27400 fluorescence intensity (a.u.) |

| Sequence | binding signal |
| --- | --- |
| AAGGCTAATGTGGATGACAAGGCAGTGTCTGAAAATACCACGGAGTCACCTAGTGCAG | 5390 fluorescence intensity (a.u.) |
| GGATACGAAATGGACGGCCCGAACGAGACCCAGGATATAACGGAGTCACCTAGTGCAG | 33600 fluorescence intensity (a.u.) |
| TTCTTCCCGCTCACCACGTCAGCGCCACGTGAGCAAAACCCGGAGTCACCTAGTGCAG | 32500 fluorescence intensity (a.u.) |
| GGCCACGTCACGCAAAACCCGCAGAATTACGCGATTCGCTCGGAGTCACCTAGTGCAG | 9520 fluorescence intensity (a.u.) |
| CCATCTGCCTGTGAATCAGATTTGTCATGTTCGTAACCATCGGAGTCACCTAGTGCAG | 4400 fluorescence intensity (a.u.) |
| TTTAATGATCCATGCATGTGTCTAAATATTTGATGCGATGCGGAGTCACCTAGTGCAG | 3230 fluorescence intensity (a.u.) |
| AATCCAGAGATGATGTGTCCTACAGCTCACTGATCATATCCGGAGTCACCTAGTGCAG | 7310 fluorescence intensity (a.u.) |
| AATTTTATATATGGGGACTATAATCTCCCTTCTAATCCCCCGGAGTCACCTAGTGCAG | 3230 fluorescence intensity (a.u.) |
| TAATTCATCCATGTCCATGTCATATTTGTTTACTCGTGGACGGAGTCACCTAGTGCAG | 5440 fluorescence intensity (a.u.) |
| CTTGTTTCACCTGTCATACACACGTTACGTCTTAGAGTCCCGGAGTCACCTAGTGCAG | 5140 fluorescence intensity (a.u.) |
| GCTTGTGGCCTGCGTAGTGCTAGAAATATAGTAATCCCTCCGGAGTCACCTAGTGCAG | 3440 fluorescence intensity (a.u.) |
| GTAGGGAGTTGTTGTATTGTGAGCCAAAAGGTGTGTATTGCGGAGTCACCTAGTGCAG | 3350 fluorescence intensity (a.u.) |
| AGAAGACAACAGTGAGGAACTGAGGACACGTGTACTTGGACGGAGTCACCTAGTGCAG | 12600 fluorescence intensity (a.u.) |
| AATAAATTGCCCGCACATGTGTGCGGGCTTTCTTCCTAATCGGAGTCACCTAGTGCAG | 4260 fluorescence intensity (a.u.) |
| GTAGATACCCGTCAGCCTCTGCATCGGCGTCCATGTCCATCGGAGTCACCTAGTGCAG | 3700 fluorescence intensity (a.u.) |
| AGGATTCCGGGTCGTGTTTGACGTGGAGAAGGAACGGATCCGGAGTCACCTAGTGCAG | 6370 fluorescence intensity (a.u.) |
| GATACTGCAGGCGCTGGTGAGCGTGGACATGGCGGTGCTGCGGAGTCACCTAGTGCAG | 5130 fluorescence intensity (a.u.) |
| AAGTAACAATAATGATATAGTGTTTTGCAAACAGAGTACACGGAGTCACCTAGTGCAG | 3390 fluorescence intensity (a.u.) |
| AACTTCAATTTCAAATAACAGGGTCAAATAAACAAACCTACGGAGTCACCTAGTGCAG | 4590 fluorescence intensity (a.u.) |
| CATTGCTGAACATATAAATTCCACGTTGCTGAATAAGCACCGGAGTCACCTAGTGCAG | 4240 fluorescence intensity (a.u.) |
| GTCTAAGTAGTAGAGTGCTACAAATTCCAGTTCCCTCCCGCGGAGTCACCTAGTGCAG | 5430 fluorescence intensity (a.u.) |
| GTCTTCCTCTGGCCCATGCTGCAGAACCACGTCCCCGCCGCGGAGTCACCTAGTGCAG | 4010 fluorescence intensity (a.u.) |
| AGTTGTTTCTTTCCTAAATTATTAGAGCCTGGATTATTGGCGGAGTCACCTAGTGCAG | 3990 fluorescence intensity (a.u.) |
| CTCCTCAACAACACTCTCAGGTCAATCTCGGCCGACCCAACGGAGTCACCTAGTGCAG | 21200 fluorescence intensity (a.u.) |
| TTATCTTCGCAGGATAGATAACCCGCTGACTCGGATTATACGGAGTCACCTAGTGCAG | 8500 fluorescence intensity (a.u.) |
| CCACCACGCGTCAGTTTAGCATGCTACACGTATGCCCTTCCGGAGTCACCTAGTGCAG | 7620 fluorescence intensity (a.u.) |
| TGAAACCCACGCCACCTCATCTCTTCCCTCTTATTTCCCCCGGAGTCACCTAGTGCAG | 9020 fluorescence intensity (a.u.) |

An excerpt of the results above, for reference:

| Sequence | binding signal |
| --- | --- |
| AGGATTCCGGGTCGTGTTTGACGTGGAGAAGGAACGGATCCGGAGTCACCTAGTGCAG | 6370 fluorescence intensity (a.u.) |
| GATACTGCAGGCGCTGGTGAGCGTGGACATGGCGGTGCTGCGGAGTCACCTAGTGCAG | 5130 fluorescence intensity (a.u.) |
| AAGTAACAATAATGATATAGTGTTTTGCAAACAGAGTACACGGAGTCACCTAGTGCAG | 3390 fluorescence intensity (a.u.) |
| AACTTCAATTTCAAATAACAGGGTCAAATAAACAAACCTACGGAGTCACCTAGTGCAG | 4590 fluorescence intensity (a.u.) |
| CATTGCTGAACATATAAATTCCACGTTGCTGAATAAGCACCGGAGTCACCTAGTGCAG | 4240 fluorescence intensity (a.u.) |
| GTCTAAGTAGTAGAGTGCTACAAATTCCAGTTCCCTCCCGCGGAGTCACCTAGTGCAG | 5430 fluorescence intensity (a.u.) |
| GTCTTCCTCTGGCCCATGCTGCAGAACCACGTCCCCGCCGCGGAGTCACCTAGTGCAG | 4010 fluorescence intensity (a.u.) |
| AGTTGTTTCTTTCCTAAATTATTAGAGCCTGGATTATTGGCGGAGTCACCTAGTGCAG | 3990 fluorescence intensity (a.u.) |
| CTCCTCAACAACACTCTCAGGTCAATCTCGGCCGACCCAACGGAGTCACCTAGTGCAG | 21200 fluorescence intensity (a.u.) |
| TTATCTTCGCAGGATAGATAACCCGCTGACTCGGATTATACGGAGTCACCTAGTGCAG | 8500 fluorescence intensity (a.u.) |
